Most entries show no effect beyond the scatter of the controls.

Our source for the normalised response values is the supplement of paper PMC4862054.

What all share (test): normalised response (% of control), CellTox Green; higher = less cell death (100 = DMSO, 0 = benzethonium chloride kill control)
Holding throughout (conditions): incubation time: 72 h

The test system of one experiment is BT-474. The method, then: (§1)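 DSRT, 72 h incubation, CellTox Green / CellTiter-Glo readout. Signal is normalised to DMSO and benzethonium chloride controls. Value is the normalised response at the lowest tested concentration.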
A further experiment concerns BT-549. Here is the method: as §1
The test system of a further experiment is CAL-120. The method, then:
as §1

The subject of the next experiment is CAL-148. The method, then: as §1
For the next experiment, the system named is CAL-51. The method, then: as §1
Another experiment concerns CAL-85-1. Here is the method: as §1
The next experiment concerns DU-4475. Here is the method:
as §1

A further experiment concerns HCC1143. Here is the method: as §1
The subject of another experiment is HCC1599. The method, then: as §1
The next experiment relates to HCC1937. Here is the method:
as §1

The next experiment has as its system Hs578T. Here is the method:
as §1

The next experiment has as its system MCF-10A. Here is the method:
as §1

Another experiment deals with MDA-MB-231. Here is the method: as §1
A further experiment relates to MDA-MB-436. Here is the method: as §1
Another experiment concerns MDA-MB-453. The method, then: as §1
A further experiment relates to MDA-MB-468. Here is the method: as §1
The next experiment relates to MFM-223. The method, then: as §1

With `CC1(C)CCC(CN2CCN(c3ccc(C(=O)NS(=O)(=O)c4ccc(NCC5CCOCC5)c([N+](=O)[O-])c4)c(Oc4cnc5[nH]ccc5c4)c3)CC2)=C(c2ccc(Cl)cc2)C1` [ABT-199] (1 nM), the normalised response stood at 100% in the experiment with BT-474; 94.4% with BT-549; 101% with CAL-120; 103% in the experiment with CAL-148; 87.7% with CAL-51; 98.7% with CAL-85-1. Moreover, the normalised response in the experiment on DU-4475 came to 99.9%; in the experiment with HCC1143 it was 95.8%; in the experiment with HCC1599, 105%; in the experiment on HCC1937, 64.5%; with Hs578T it was 104%; in the experiment with MCF-10A, 84.5%. Also, the normalised response in the experiment with MDA-MB-231 is 98.4%; in the experiment with MDA-MB-436, 83.8%; in the experiment on MDA-MB-453 it was 104%; in the experiment on MDA-MB-468, 95.1%; in the experiment with MFM-223, 101%.

As to `CN1CC[C@H](c2c(O)cc(O)c3c(=O)cc(-c4ccccc4Cl)oc23)[C@H](O)C1` [Alvocidib] (1 nM), the normalised response in the experiment on BT-474 stood at 104%; in the experiment on BT-549, 90.7%; in the experiment with CAL-120 it was 102%; with CAL-148, 108%; in the experiment on CAL-51, 113%; with CAL-85-1, 101%. The normalised response in the experiment on DU-4475 was found to be 99.1%; in the experiment on HCC1143, 110%; in the experiment with HCC1599, 98.8%; in the experiment with Hs578T, 104%; in the experiment on MCF-10A, 102%; with MDA-MB-231 it was 93.9%. In addition, the normalised response with MDA-MB-436 came out at 58.5%; in the experiment with MDA-MB-453, 113%; in the experiment with MDA-MB-468, 54.9%; with MFM-223, 100%.

For `CC(O)(CS(=O)(=O)c1ccc(F)cc1)C(=O)Nc1ccc(C#N)c(C(F)(F)F)c1` (centres undefined) [Bicalutamide] (1 nM), the normalised response in the experiment with BT-474 was found to be 102%; in the experiment with BT-549, 95.1%; in the experiment on CAL-120, 105%; with CAL-148 it was 109%; in the experiment on CAL-51, 121%; in the experiment on CAL-85-1, 98.3%. In addition, the normalised response was 101% in the experiment on DU-4475; 113% in the experiment on HCC1143; 94.2% in the experiment on HCC1599; 102% in the experiment on HCC1937; 98.6% in the experiment on MCF-10A; 83.9% with MDA-MB-436. The normalised response came out at 108% with MDA-MB-453, 109% in the experiment on MDA-MB-468 and 97.3% in the experiment with MFM-223.

As for `Cc1cc(C(C)Nc2ccccc2)c2nc(N3CCOCC3)cc(=O)n2c1` (centres undefined) [TGX-221] (1 nM), the normalised response with BT-474 is 101%; with BT-549, 97.9%; in the experiment on CAL-120 it was 99.9%; with CAL-148, 89.3%; in the experiment on CAL-51, 116%; with CAL-85-1, 101%. Also, the normalised response turned out to be 100% with DU-4475; 113% in the experiment on HCC1143; 107% in the experiment on HCC1599; 97.8% in the experiment with HCC1937; 98.7% in the experiment on MCF-10A; 106% with MDA-MB-231. The normalised response came to 108% in the experiment with MDA-MB-436, 104% in the experiment with MDA-MB-453, 96.8% with MDA-MB-468 and 105% with MFM-223.
